Measured values as given in article PMC10625600.

Protein sequences, listed by entry. Tags and fused reporters are not part of them. Residues count along the entry.
UniProt Q15717, 11-186: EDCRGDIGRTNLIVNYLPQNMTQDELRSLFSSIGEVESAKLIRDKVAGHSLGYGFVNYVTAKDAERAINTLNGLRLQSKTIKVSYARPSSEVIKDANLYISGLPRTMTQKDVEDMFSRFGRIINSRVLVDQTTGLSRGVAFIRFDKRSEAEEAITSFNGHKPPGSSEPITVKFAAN

Target: HuR RRM1+2 (UniProt Q15717)
Test: SPR
Conditions: 50 nM RNA, no VHH, legend says unlabelled RNA, Methods names the Msi1-FITC probe; SPR: Biacore 8K, streptavidin chip; recombinant protein; residues 11-186; protein details: Avi-tag (biotinylated), TEV-cleavable His-tag

Sequence: GCUUUUAUUUAUUUUG [unlabelled Msi1 RNA]
- binding result: binds

For at least one entry, the source does not settle the construct or the ends of the probe. At least one verdict rests on a figure or table, not on a statement of the authors.
